PubChem BioAssay AID504784, Drosophila RNAi Screening Center, 2011
Purpose: 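Genome-wide knock-down for genes giving too much or too little stored lipid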 (primary screen). Cell system: Drosophila Kc167 embryonic cells. Reagent: long dsRNA against Drosophila genes, about 250 ng dsRNA per well. Duration: 4 days. Challenge: cells fed 400 µM oleic acid bound to BSA. Detection: 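Cells imaged and segmented; ratio of lipid droplet area to nuclear area, log-transformed, then normalised as a B-score over the screen; higher means more stored lipid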. Scale: droplet/nuclear area B-score: higher = more stored lipid (overstorage).
In all, the deposit lists about 17,000 reagents; shown is an unselected part of those with a known target gene and a result. 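Each column is one replicate's B-score; the combined score over replicates was not deposited, so single values may mislead.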 Names joined by + are all predicted targets of the reagent. No sequences are given here.

| target gene | DRSC id | droplet/nuclear area B-score, replicate 1 | droplet/nuclear area B-score, replicate 2 | droplet/nuclear area B-score, replicate 3 |
| --- | --- | --- | --- | --- |
| Lasp | DRSC10379 | 1.15 | 1.13 | – |
| GILT3 | DRSC14672 | 0.399 | -2.38 | – |
| Sec5 | DRSC00714 | -2.4 | 0.403 | – |
| CG9512 | DRSC20189 | 0.0167 | -0.0858 | 0.635 |
| Vps51 | DRSC06519 | 0.857 | 1.3 | – |
| CG8301 | DRSC16405 | -1.1 | 0.0347 | – |
| Nurf-38 | DRSC04629 | 0.72 | -0.535 | – |
| Creld | DRSC00308 | -0.424 | -3.66 | – |
| Best4 | DRSC10792 | 1.07 | 1.56 | – |
| CG7560 | DRSC10879 | -0.298 | -1.76 | – |
| CG10555 | DRSC17748 | 0.673 | 1.6 | – |
| CG10555 | DRSC23202 | 0.628 | 0.567 | – |
| lncRNA:roX2 | DRSC22237 | -1.36 | -0.401 | – |
| unc-13-4A | DRSC10201 | -0.28 | -0.201 | – |
| unc-13-4A | DRSC10202 | -0.543 | 1.1 | – |
| unc-13-4A | DRSC10203 | -0.0111 | 0.465 | – |
| unc-13-4A | DRSC11013 | 0.347 | -0.929 | – |
| slow | DRSC08589 | -1.03 | 1.85 | – |
| slow | DRSC08590 | 0.332 | -0.58 | – |
| Akap200 | DRSC01864 | 1.32 | -2.74 | – |
| Gr93d | DRSC21941 | -1.01 | 0.674 | – |
| CG5800 | DRSC19962 | -0.648 | -0.29 | – |
| Muc18B | DRSC21644 | 1.49 | -1.38 | – |
| Nep6 | DRSC19877 | 0.839 | -0.195 | 0.677 |
| Su(Tpl) | DRSC10954 | -1.16 | 2.64 | -0.779 |
| Eaf | DRSC05050 | -0.724 | -0.84 | – |
| Eaf | DRSC06052 | -1.77 | -0.903 | – |
| Eaf | DRSC22028 | -1.28 | 0.0128 | – |
| Jhbp12 | DRSC14621 | -1.59 | 0.466 | – |
| coro | DRSC05007 | 0.327 | -0.24 | – |
| coro | DRSC21417 | -2.85 | 0.294 | – |
| rb | DRSC18826 | -0.00975 | 0.294 | – |
| Ddx1 | DRSC11862 | 0.167 | -0.102 | -0.537 |
| Cyp6a13 | DRSC07375 | -0.267 | 3.55 | – |
| Obp50e | DRSC06434 | -0.317 | -1.14 | – |
| Rnp4F | DRSC18706 | -0.608 | -1.19 | -1.1 |
| CG9083 | DRSC04625 | -1 | 0.119 | – |
| CG11893 | DRSC14429 | 0.0004 | -0.337 | – |
| Plap | DRSC00678 | -0.413 | -0.497 | – |

Targets above whose target name begins with R or r:
| target gene | DRSC id | droplet/nuclear area B-score, replicate 1 | droplet/nuclear area B-score, replicate 2 | droplet/nuclear area B-score, replicate 3 |
| --- | --- | --- | --- | --- |
| rb | DRSC18826 | -0.00975 | 0.294 | – |
| Rnp4F | DRSC18706 | -0.608 | -1.19 | -1.1 |

The list goes on:
| target gene | DRSC id | droplet/nuclear area B-score, replicate 1 | droplet/nuclear area B-score, replicate 2 | droplet/nuclear area B-score, replicate 3 |
| --- | --- | --- | --- | --- |
| CG6040 | DRSC15954 | 0.277 | -0.824 | – |
| GstS1 | DRSC07436 | -2.27 | 0.661 | – |
| mask | DRSC15370 | 0.33 | 0.541 | – |
| mask | DRSC16005 | 0.0995 | -2.57 | – |
| mask | DRSC16018 | 1.91 | 0.48 | – |
| CG12824 | DRSC06173 | 1.39 | -0.94 | – |
| CG9168 | DRSC08633 | 0.57 | -0.0666 | – |
| CG13423 | DRSC06386 | -1.45 | 0.0494 | – |
| Gtpx | DRSC08221 | -1.16 | 0.309 | – |
| Gtpx | DRSC22117 | -0.0261 | 0.703 | – |
| Spn28Db | DRSC22033 | -0.776 | 2.22 | – |
| dpr8 | DRSC19406 | -1.22 | -1.18 | – |
| dpr8 | DRSC19600 | 2.28 | 3.31 | – |
| dpr8 | DRSC19938 | 0.555 | 0.553 | – |
| dpr8 | DRSC19939 | -0.0445 | 0.0412 | – |
| Fkbp14 | DRSC04615 | 0.215 | 0.23 | – |
| beat-Ib | DRSC03490 | -0.439 | -0.43 | – |
| Rbcn-3A | DRSC18314 | -1.08 | -0.0387 | – |
| CG17127 | DRSC02581 | -0.734 | 0.929 | – |
| Nup188 | DRSC21830 | 0.00515 | 0.716 | – |
| CG10479 | DRSC09733 | -0.145 | -2.08 | – |
| Elys | DRSC19571 | 0.436 | 0.259 | – |
| RpL14 | DRSC11269 | 5.2 | 4.65 | – |
| Nmd3 | DRSC22834 | 2.75 | 0.806 | – |
| NimB5 | DRSC01885 | -1.29 | 0.757 | – |
| cDIP | DRSC14267 | -0.909 | 0.494 | – |
| Obp69a | DRSC11247 | -0.397 | -1.49 | – |
| Gdh | DRSC16679 | -0.155 | 1.94 | – |
| CG8320 + ATPCL | DRSC07147 | 2.88 | -2.17 | – |
| Cpr65Au | DRSC22738 | -0.014 | -0.987 | – |
| CG9616 | DRSC16518 | -1.69 | 0.315 | – |
| dmt | DRSC16932 | -0.0538 | 3.92 | – |
| Or45a | DRSC07487 | -0.25 | -0.719 | – |
| RpL31 | DRSC06716 | 3.21 | 5.92 | – |
| CG2217 + CG42740 | DRSC14141 | 2.33 | 1.03 | – |
| CG4537 | DRSC02756 | 0.819 | -1.78 | – |
| mRpS34 | DRSC09918 | 2.64 | 2.06 | – |
| Sox21b | DRSC10025 | -1.09 | 0.268 | 0.0202 |
| Sox21b | DRSC10634 | -0.0584 | 0.338 | – |
| Sox21b | DRSC22788 | 0.383 | -3.81 | – |
| Sox21b | DRSC23005 | -2.11 | -1.44 | – |
| CG32801 | DRSC17964 | -0.925 | -0.0647 | – |
| Syx18 | DRSC14628 | 2.25 | 0.455 | – |
| CG6845 | DRSC08576 | – | -2.49 | – |
| CG3473 | DRSC01915 | -0.68 | 0.0156 | – |
| CG4892 | DRSC01937 | -1.4 | 1.82 | – |
| CG14722 | DRSC14944 | 0.953 | -6.45 | – |
| RIC-3 | DRSC04243 | -0.0881 | -0.186 | – |
| RIC-3 | DRSC04543 | 0.978 | -4.13 | – |
| CG13972 | DRSC14715 | -0.932 | -0.224 | – |
| senju | DRSC02366 | 1.29 | -0.355 | – |
| CG18262 | DRSC18149 | 0.0423 | 0.25 | – |
| Or49b | DRSC07494 | -0.392 | -0.00209 | – |
| bigmax | DRSC15481 | -0.00751 | – | – |
| CG6283 | DRSC16009 | -0.0019 | -0.125 | – |
| Pgam5-2 | DRSC04278 | 0.651 | -0.18 | – |
| Rchy1 | DRSC02542 | 2.58 | -0.673 | – |
| Rchy1 | DRSC23118 | -2.16 | -2.08 | – |
| puml | DRSC06793 | 1.77 | 0.507 | – |
| miple1 | DRSC08722 | 1.13 | 0.177 | – |
| Pbp95 | DRSC15448 | 0.37 | -0.0517 | – |
| w-cup | DRSC03048 | 0.597 | -0.617 | – |
| CG10344 | DRSC04066 | 0.274 | -1.31 | – |
| nht | DRSC01976 | -0.477 | -0.572 | 0.552 |
| CG5181 | DRSC02825 | 1.01 | -0.0701 | – |
| kmr | DRSC14827 | -0.375 | -0.357 | – |
| kmr | DRSC14828 | -1.44 | -1.51 | – |
| kmr | DRSC16472 | 6.63 | -0.338 | – |
